These are yes or no findings as the source states them, for the method shown. In cells and extracts the contact can be indirect. Binding can be weak; no strength is given.
Molecular target: sterol-regulatory element binding protein-1 (SREBP1), endogenous in mouse liver (mouse (endogenous in mouse liver)) (UniProt Q9WTN3)
Assay: co-IP; mouse liver extracts; mice fasted overnight and treated with vehicle or FGF19 for 2 h, or refed normal chow for the indicated times (C57BL/6, FGF15-KO mice or littermates); CoIP buffer 50 mM Tris-HCl pH 8.0, 150 mM NaCl, 2 mM EDTA, 0.5% NP-40, 5% glycerol; 1-2 ug antibody 3 h, protein G agarose; bound proteins detected by IB

The chains behind the UniProt entries cited, without tags or fusion partners. Where a name states a change or a piece, a line headed by the entry shows the natural chain unless it says otherwise.
UniProt Q9WTN3: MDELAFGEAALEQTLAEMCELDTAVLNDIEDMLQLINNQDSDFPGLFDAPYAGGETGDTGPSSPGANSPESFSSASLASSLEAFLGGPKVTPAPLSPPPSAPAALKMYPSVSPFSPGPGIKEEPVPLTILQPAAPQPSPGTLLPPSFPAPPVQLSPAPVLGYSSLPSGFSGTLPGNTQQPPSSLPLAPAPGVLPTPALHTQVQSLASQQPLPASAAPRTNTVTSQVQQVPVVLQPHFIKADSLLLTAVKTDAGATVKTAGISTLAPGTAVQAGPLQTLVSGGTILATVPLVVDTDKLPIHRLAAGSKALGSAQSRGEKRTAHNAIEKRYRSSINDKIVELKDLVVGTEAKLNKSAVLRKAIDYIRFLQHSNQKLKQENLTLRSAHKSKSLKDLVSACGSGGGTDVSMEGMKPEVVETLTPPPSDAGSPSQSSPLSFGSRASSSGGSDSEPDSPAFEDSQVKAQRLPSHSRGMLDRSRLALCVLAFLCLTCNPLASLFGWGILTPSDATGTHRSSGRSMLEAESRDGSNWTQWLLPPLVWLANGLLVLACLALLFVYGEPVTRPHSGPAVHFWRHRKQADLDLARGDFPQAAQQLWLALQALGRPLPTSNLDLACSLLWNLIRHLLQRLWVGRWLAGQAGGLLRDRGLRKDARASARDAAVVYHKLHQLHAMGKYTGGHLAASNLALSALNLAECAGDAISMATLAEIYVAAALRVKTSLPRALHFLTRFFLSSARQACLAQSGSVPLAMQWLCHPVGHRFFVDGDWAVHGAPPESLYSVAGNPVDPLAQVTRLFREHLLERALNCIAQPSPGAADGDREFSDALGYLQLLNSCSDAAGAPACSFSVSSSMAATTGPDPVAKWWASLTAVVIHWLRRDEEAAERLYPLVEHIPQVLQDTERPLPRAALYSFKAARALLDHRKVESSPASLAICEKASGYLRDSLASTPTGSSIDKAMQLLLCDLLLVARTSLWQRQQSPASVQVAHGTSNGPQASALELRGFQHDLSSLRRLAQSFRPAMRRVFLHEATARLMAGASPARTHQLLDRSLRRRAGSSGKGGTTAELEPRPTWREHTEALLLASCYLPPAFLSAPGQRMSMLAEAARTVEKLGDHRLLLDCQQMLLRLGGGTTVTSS

binding: binds
B1: Small Heterodimer Partner (SHP/NR0B2), endogenous in mouse liver (protein, UniProt Q62227 1-260)
chain: MSSGQSGVCPCQGSAGRPTILYALLSPSPRTRPVAPASHSHCLCQQQRPVRLCAPHRTCREALDVLAKTVAFLRNLPSFCHLPHEDQRRLLECCWGPLFLLGLAQDAVTFEVAEAPVPSILKKILLEEASSGTQGAQPSDRPQPSLAAVQWLQRCLESFWSLELGPKEYAYLKGTILFNPDVPGLRASCHIAHLQQEAHWALCEVLEPWYPASQGRLARILLMASTLKNIPGTLLVDLFFRPIMGDVDITELLEDMLLLR

— publication PMC7686350
